{"source": "patent US10383955B2", "about": "“Human mast cell lines, preparation and uses” (CENTRE NATIONAL DE LA RECHERCHE SCIENTIFIQUE, priority 2011, dated 2019)", "key": {"ROSA KIT WT line": {"tested_on": "ROSA KIT WT line", "test": "Proliferation of ROSA KIT WT line with tyrosine kinase inhibitors (WST-1)", "format": "cell-based", "conditions": "1 μM/l, 48 hours, medium with human SCF 80 ng/ml, relative to DMSO 0.1%", "method": "(§1) Finally, the inventors evaluated the effect of two molecules which inhibit tyrosine kinase activity, imatinib and dasatinib (both supplied by Sequoia Research), on the proliferation of the 3 ROSA KIT WT, ROSA KIT D816V and ROSA KIT Delta 417-419 insY lines. To do this, the cells were seeded at a starting concentration of 3×10^5 cells per ml in 96-well plates (100 μl per well) and incubated at 37° C. in an incubator (5% CO2 in air) for 48 hours in the presence of 1 μM/l of imatinib or of dasatinib (in DMSO brought to a final concentration of 0.1%) or in the presence of DMSO alone (0.1% final concentration) in their usual culture medium (containing human SCF at 80 ng/ml for the ROSA KIT WT line but without SCF for the ROSA KIT D816V and ROSA KIT Delta 417-419 insY lines). At the end of this incubation, 10 μl of WST-1 (Roche Applied Science) are added to each well and the cells are incubated for a further 3 hours in an incubator at 37° C. The number of live cells is then measured for each condition by reading the absorbance at 450 nm using a Multiskan MS plate reader (Thermo LabSystems).\n(§2) The results obtained for each line (presented in FIG. 15) are expressed as % of live cells (the condition DMSO alone at 0.1% final concentration being considered to contain 100% of live cells)."}, "[1]": {"tested_on": "ROSA KIT Delta 417-419 insY line", "test": "Proliferation of ROSA KIT Delta 417-419 insY line with tyrosine kinase inhibitors (WST-1)", "format": "cell-based, human", "conditions": "1 μM/l, 48 hours, without SCF, relative to DMSO 0.1%", "method": "as §1, §2"}, "ROSA KIT D816V line": {"tested_on": "ROSA KIT D816V line", "test": "Proliferation of ROSA KIT D816V line with tyrosine kinase inhibitors (WST-1)", "format": "cell-based, human", "conditions": "1 μM/l, 48 hours, without SCF, relative to DMSO 0.1%", "method": "as §1, §2"}, "[2]": {"tested_on": "subclone HMC-1.2 (KIT V560G and D816V)", "conditions": "two KIT mutations (V560G and D816V); cited from earlier work"}}, "note": "“Also recorded” adds a separate entry of the source. For at least one compound, name, drawing or mass did not settle the structure.", "data": [{"smiles": "Cc1nc(Nc2ncc(C(=O)Nc3c(C)cccc3Cl)s2)cc(N2CCN(CCO)CC2)n1", "note": "[dasatinib]", "values": [{"measurement": "inhibition of proliferation (% of live cells)", "setting": "ROSA KIT WT line", "result": "sensitive"}, {"measurement": "inhibition of proliferation (% of live cells)", "setting": "[1]", "result": "sensitivity; also recorded: sensitive"}, {"measurement": "inhibition of proliferation (% of live cells)", "setting": "ROSA KIT D816V line", "result": "sensitivity"}, {"measurement": "sensitivity of the line", "setting": "[2]", "result": "sensitive"}]}]}
